Some of the results follow.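 The calls were made as follows: active = dose-dependent thermal stabilisation significant by F-test of dose-response against flat model at 10% FDR; inactive = not significant.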
The targets below were run with Nc1nc2c(ncn2[C@@H]2O[C@H](COP(=O)(O)OP(=O)(O)OP(=O)(O)O)[C@@H](O)[C@H]2O)c(=O)[nH]1 (assay: dose-dependent thermal stabilisation call (2D-TPP, DLPTP, 10% FDR) (binary (1 = stabilised)); higher = stabilised by the compound). Settings: system: Jurkat gel-filtered lysate; concentration range 1-500 µM.

Chains of the proteins cited; added tags and fusions are not shown. Lines headed by an entry give the natural chain unless they say otherwise; changes in a name come on top.
UniProt A3KN83: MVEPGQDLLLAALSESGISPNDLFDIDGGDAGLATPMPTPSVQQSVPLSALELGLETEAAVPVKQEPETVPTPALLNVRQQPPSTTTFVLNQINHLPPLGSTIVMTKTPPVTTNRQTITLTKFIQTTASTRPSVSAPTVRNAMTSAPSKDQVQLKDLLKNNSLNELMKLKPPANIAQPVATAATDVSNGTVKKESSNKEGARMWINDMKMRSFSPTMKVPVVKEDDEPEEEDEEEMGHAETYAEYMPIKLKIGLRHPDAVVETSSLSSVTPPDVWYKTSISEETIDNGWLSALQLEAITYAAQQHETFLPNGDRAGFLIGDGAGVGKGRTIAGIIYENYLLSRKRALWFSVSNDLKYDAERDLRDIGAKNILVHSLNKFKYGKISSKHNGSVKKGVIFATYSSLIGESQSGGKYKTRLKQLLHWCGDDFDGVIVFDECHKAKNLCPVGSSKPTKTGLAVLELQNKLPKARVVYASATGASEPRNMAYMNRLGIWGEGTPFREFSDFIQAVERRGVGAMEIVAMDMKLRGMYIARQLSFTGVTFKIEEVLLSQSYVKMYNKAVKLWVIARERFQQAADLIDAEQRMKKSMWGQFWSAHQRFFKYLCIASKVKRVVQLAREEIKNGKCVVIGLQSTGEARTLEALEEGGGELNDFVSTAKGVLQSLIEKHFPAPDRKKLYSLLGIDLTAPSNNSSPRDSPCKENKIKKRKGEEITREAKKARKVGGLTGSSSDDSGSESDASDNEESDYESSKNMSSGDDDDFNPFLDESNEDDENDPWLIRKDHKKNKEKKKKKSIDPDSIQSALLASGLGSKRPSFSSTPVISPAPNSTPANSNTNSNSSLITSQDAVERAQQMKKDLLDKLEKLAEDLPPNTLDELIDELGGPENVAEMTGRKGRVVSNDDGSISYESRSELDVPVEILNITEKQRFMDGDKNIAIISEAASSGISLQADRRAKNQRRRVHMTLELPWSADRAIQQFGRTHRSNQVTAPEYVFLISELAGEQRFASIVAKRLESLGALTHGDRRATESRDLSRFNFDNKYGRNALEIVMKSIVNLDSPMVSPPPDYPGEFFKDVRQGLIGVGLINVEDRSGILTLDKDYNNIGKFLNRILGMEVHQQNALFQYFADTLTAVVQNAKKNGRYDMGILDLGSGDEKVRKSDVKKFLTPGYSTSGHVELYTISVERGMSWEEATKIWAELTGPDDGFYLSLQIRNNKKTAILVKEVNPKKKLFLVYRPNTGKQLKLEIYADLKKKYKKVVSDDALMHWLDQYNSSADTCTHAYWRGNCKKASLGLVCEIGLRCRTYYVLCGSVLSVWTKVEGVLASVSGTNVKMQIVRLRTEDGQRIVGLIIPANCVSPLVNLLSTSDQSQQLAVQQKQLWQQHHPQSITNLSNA
UniProt Q9Y3V2: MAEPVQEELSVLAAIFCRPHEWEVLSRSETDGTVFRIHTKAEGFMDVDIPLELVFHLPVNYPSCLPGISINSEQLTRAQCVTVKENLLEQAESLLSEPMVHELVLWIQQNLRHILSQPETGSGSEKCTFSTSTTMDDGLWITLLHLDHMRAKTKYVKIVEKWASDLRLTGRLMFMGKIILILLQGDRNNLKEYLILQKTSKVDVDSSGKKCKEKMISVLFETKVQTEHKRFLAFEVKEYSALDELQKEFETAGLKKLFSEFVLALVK
UniProt O75792: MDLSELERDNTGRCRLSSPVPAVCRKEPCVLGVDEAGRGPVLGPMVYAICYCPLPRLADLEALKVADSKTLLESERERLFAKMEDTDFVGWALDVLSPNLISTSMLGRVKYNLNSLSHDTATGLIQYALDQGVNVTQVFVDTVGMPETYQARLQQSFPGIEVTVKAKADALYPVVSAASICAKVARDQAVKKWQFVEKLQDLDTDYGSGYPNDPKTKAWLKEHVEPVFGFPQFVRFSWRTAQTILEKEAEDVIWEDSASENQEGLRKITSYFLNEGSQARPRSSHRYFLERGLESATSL
UniProt Q15424: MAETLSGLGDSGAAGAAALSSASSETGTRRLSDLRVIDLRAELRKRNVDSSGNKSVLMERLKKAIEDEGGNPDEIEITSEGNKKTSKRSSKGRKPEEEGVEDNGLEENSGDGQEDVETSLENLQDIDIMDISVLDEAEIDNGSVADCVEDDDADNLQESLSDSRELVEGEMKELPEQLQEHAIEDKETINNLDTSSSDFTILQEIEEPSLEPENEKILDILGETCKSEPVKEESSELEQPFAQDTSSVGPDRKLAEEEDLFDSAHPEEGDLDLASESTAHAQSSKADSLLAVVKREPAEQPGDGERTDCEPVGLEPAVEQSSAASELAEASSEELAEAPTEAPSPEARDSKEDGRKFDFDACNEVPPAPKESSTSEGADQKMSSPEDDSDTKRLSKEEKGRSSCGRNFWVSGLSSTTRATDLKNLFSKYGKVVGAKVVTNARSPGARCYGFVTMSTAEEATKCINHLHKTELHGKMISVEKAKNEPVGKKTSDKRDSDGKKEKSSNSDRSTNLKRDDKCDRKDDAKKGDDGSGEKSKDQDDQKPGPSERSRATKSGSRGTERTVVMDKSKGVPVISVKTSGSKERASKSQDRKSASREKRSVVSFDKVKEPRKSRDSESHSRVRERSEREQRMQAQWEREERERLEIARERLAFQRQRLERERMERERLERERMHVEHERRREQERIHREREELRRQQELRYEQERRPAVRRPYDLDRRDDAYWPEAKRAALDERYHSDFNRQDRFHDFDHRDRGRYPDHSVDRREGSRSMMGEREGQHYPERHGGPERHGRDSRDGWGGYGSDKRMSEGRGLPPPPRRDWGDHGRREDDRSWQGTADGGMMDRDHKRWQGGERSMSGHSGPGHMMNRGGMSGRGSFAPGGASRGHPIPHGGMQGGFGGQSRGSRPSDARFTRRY
UniProt Q9P2E9: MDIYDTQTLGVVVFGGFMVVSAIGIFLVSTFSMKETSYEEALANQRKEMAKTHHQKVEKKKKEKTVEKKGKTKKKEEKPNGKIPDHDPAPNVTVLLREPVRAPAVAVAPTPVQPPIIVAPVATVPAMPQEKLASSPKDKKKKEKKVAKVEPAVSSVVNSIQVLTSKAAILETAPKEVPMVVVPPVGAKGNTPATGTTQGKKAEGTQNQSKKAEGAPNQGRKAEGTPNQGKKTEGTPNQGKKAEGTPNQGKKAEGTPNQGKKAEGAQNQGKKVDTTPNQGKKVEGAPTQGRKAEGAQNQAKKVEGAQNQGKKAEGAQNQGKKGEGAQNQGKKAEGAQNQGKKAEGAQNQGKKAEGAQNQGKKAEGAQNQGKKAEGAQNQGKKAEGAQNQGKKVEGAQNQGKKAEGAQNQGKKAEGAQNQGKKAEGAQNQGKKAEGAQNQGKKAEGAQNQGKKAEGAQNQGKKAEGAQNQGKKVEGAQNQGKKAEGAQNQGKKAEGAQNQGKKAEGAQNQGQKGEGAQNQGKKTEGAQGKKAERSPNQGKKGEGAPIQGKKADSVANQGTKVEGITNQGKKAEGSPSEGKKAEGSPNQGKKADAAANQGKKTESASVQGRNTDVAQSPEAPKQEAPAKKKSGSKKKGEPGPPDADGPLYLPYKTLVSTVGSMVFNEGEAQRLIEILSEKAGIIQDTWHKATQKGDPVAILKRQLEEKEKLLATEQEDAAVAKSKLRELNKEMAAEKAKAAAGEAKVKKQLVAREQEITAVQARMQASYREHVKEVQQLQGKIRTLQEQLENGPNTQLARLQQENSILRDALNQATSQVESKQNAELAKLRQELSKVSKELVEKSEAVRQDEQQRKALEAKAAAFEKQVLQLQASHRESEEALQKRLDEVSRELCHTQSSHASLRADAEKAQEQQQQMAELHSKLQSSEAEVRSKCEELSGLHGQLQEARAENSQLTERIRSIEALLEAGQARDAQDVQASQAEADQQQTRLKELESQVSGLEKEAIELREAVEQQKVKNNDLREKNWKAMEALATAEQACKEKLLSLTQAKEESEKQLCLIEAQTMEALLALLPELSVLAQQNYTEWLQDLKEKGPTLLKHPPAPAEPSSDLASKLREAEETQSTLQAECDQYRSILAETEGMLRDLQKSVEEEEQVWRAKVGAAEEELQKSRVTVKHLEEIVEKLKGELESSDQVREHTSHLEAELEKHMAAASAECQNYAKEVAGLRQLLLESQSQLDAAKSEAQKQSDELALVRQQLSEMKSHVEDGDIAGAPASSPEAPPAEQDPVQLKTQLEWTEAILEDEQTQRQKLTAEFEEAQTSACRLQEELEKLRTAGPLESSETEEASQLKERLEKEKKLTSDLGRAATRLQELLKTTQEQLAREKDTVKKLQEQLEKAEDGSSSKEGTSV
UniProt Q96BU1: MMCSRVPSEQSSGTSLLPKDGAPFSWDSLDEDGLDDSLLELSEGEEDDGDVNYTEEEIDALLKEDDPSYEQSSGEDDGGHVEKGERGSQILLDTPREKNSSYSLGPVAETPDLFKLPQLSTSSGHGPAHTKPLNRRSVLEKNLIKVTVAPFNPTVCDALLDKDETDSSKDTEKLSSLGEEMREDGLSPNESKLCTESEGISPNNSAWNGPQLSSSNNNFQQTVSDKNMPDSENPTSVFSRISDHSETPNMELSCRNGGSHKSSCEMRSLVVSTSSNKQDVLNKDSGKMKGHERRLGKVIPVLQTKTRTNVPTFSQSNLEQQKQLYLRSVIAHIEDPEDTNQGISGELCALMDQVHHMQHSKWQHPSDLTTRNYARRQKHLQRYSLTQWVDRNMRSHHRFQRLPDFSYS
UniProt Q13464: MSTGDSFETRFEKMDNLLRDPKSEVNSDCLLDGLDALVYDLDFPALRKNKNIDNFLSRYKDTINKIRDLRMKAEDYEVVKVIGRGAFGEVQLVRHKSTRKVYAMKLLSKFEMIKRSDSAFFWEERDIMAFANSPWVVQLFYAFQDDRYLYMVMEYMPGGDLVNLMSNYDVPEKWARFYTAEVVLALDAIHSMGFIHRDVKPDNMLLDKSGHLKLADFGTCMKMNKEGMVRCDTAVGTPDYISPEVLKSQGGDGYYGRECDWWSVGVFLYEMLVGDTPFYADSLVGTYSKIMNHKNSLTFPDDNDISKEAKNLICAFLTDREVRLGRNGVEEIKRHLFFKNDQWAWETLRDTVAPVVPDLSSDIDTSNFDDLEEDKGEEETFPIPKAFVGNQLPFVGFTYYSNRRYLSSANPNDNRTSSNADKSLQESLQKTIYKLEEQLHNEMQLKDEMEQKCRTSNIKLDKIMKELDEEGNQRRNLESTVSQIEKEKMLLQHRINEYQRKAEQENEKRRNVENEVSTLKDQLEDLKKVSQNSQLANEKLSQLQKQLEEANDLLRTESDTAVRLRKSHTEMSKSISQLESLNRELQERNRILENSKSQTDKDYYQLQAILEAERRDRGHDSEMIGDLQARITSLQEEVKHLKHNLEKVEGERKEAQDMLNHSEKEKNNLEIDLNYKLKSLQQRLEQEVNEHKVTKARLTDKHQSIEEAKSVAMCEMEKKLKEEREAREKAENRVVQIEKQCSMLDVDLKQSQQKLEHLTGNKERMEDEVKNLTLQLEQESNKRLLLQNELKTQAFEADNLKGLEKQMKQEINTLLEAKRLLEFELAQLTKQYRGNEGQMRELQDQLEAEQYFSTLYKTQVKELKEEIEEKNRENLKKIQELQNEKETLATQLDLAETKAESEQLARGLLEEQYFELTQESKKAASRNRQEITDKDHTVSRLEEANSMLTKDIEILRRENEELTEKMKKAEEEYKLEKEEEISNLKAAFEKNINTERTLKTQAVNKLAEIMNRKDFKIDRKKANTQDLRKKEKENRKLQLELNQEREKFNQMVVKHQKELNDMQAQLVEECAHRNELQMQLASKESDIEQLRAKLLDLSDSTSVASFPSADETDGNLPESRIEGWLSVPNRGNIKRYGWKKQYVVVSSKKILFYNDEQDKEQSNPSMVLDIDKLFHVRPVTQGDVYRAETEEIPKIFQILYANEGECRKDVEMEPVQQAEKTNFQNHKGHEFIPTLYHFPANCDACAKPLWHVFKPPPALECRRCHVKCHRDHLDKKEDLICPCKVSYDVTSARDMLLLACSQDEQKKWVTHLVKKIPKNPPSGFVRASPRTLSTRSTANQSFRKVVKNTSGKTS
UniProt Q9NPQ8: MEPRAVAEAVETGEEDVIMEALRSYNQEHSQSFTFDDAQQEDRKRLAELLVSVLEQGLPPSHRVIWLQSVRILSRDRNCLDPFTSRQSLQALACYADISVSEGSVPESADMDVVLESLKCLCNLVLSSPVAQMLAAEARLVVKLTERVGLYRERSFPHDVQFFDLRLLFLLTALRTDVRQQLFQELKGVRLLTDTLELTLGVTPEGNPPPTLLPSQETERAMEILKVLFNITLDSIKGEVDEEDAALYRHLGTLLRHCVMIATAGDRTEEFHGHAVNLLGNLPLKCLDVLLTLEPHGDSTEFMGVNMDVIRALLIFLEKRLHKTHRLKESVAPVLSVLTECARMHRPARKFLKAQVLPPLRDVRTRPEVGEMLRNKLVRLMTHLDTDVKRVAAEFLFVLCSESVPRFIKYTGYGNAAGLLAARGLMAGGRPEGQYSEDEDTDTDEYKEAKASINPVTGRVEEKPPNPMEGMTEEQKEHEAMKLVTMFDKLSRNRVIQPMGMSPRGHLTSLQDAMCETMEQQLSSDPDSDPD

Target | dose-dependent thermal stabilisation call
RPS27 (UniProt P42677) | inactive: 0
SEC24B (UniProt O95487) | inactive: 0
SBNO1 (UniProt A3KN83) | inactive: 0
RNF41 (UniProt Q9H4P4) | inactive: 0
RPLP0 (UniProt P05388) | inactive: 0
RECQL5 (UniProt O94762) | inactive: 0
RRP9 (UniProt O43818) | inactive: 0
RFX1 (UniProt P22670) | inactive: 0
RWDD3 (UniProt Q9Y3V2) | inactive: 0
RNASEH2A (UniProt O75792) | inactive: 0
SASS6 (UniProt Q6UVJ0) | inactive: 0
RFX5 (UniProt P48382) | inactive: 0
RPS27L (UniProt Q71UM5) | inactive: 0
SH2D1A (UniProt O60880) | inactive: 0
RPS12 (UniProt P25398) | inactive: 0
SAFB (UniProt Q15424) | inactive: 0
RPS6KA3 (UniProt P51812) | active: 1
SDCCAG8 (UniProt Q86SQ7) | inactive: 0

Target | dose-dependent thermal stabilisation call
SF3B4 (UniProt Q15427) | inactive: 0
RRBP1 (UniProt Q9P2E9) | inactive: 0
RPP14 (UniProt O95059) | inactive: 0
S100PBP (UniProt Q96BU1) | inactive: 0
RNF168 (UniProt Q8IYW5) | inactive: 0
RPL17 (UniProt P18621) | inactive: 0
RYBP (UniProt Q8N488) | inactive: 0
ROCK1 (UniProt Q13464) | inactive: 0
RECQL (UniProt P46063) | inactive: 0
SETD2 (UniProt Q9BYW2) | inactive: 0
RFESD (UniProt Q8TAC1) | inactive: 0
RPL5 (UniProt P46777) | active: 1
RPS6KB1 (UniProt P23443) | active: 1
RIC8A (UniProt Q9NPQ8) | active: 1
RPP30 (UniProt P78346) | inactive: 0
RMI1 (UniProt Q9H9A7) | inactive: 0
SAP130 (UniProt Q9H0E3) | inactive: 0

From the supplement of paper PMC7666118
